Primary screen of a compound library

By UniProt entry, the sequences of proteins in these tests, tags left out. Residues count along the entry.
UniProt A4I591, 1-473: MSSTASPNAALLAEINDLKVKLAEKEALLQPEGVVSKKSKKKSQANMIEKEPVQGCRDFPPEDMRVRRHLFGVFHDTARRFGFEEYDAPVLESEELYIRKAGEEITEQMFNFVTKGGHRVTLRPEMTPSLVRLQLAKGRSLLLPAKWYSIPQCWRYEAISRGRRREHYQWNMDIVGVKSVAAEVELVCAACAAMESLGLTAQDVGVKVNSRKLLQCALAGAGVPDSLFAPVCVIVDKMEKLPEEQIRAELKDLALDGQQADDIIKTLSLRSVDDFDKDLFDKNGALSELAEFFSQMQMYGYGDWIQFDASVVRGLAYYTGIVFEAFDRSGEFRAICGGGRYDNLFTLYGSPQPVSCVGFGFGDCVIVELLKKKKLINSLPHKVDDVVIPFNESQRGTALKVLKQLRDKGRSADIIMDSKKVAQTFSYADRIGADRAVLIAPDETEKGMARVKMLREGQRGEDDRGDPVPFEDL
UniProt I6X8D2, whole entry: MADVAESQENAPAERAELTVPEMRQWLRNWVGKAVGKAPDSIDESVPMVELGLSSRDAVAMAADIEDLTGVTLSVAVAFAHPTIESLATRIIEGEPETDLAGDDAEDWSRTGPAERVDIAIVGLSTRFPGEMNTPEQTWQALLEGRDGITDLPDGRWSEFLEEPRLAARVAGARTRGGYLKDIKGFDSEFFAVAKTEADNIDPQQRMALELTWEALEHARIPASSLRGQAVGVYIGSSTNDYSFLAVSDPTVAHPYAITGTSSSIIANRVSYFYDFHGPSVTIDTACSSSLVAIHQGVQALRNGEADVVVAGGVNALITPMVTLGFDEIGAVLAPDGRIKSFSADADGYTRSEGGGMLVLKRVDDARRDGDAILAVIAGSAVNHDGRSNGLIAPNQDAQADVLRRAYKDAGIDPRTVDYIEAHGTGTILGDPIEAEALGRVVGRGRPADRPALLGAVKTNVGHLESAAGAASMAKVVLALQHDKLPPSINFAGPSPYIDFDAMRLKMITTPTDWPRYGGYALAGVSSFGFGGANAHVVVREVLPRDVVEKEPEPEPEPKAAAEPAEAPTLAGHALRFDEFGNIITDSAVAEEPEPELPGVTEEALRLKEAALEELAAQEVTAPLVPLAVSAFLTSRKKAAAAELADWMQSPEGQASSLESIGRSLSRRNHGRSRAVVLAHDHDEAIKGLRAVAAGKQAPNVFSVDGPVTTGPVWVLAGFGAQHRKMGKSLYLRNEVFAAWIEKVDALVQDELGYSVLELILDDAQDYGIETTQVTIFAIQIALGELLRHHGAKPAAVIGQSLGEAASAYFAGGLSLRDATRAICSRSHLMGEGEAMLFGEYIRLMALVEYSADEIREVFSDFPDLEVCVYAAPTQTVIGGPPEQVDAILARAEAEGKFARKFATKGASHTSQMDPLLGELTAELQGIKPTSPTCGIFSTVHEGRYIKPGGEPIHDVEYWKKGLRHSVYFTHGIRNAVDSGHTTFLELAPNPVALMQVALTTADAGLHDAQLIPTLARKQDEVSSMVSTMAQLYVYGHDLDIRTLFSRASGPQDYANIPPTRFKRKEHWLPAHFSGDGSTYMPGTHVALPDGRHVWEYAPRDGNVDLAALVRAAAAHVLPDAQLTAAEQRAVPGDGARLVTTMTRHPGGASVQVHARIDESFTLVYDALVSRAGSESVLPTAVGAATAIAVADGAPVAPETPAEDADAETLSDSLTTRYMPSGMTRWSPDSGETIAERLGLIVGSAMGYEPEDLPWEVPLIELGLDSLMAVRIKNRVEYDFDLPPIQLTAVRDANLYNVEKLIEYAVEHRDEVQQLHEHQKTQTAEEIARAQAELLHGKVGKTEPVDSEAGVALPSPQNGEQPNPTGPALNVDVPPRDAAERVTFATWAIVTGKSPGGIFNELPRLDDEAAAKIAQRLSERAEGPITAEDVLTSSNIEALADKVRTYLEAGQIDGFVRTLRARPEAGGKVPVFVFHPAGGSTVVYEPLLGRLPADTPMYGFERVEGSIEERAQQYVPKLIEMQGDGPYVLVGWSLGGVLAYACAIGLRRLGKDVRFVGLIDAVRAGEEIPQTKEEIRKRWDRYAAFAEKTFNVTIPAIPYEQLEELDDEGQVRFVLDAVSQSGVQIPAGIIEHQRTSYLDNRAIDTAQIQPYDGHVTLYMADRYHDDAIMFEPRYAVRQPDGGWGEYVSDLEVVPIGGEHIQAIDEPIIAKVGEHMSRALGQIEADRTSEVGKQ
UniProt P9WFT3, whole entry: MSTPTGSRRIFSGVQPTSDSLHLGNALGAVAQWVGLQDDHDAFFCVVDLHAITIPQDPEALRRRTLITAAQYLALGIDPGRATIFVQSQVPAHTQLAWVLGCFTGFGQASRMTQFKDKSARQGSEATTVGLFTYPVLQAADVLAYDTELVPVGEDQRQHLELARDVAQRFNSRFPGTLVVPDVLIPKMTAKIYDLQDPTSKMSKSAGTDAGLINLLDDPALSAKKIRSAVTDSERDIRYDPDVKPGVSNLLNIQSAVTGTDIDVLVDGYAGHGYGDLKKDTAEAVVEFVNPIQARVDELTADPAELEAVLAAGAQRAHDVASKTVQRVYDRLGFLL
UniProt Q4DA54, 1-478: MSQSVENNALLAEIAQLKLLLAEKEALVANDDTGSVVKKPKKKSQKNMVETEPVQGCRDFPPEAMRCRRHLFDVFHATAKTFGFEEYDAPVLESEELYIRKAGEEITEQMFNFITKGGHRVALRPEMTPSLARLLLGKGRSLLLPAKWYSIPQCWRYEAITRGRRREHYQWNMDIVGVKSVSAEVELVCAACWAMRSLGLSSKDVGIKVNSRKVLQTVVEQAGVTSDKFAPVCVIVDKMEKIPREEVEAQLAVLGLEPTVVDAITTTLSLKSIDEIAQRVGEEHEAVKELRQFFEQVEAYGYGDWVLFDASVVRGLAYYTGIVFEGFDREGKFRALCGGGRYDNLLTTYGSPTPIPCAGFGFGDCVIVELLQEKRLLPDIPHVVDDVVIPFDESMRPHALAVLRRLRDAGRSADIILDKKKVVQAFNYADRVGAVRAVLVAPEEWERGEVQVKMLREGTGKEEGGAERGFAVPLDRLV

Measurements from “University of Dundee, Small-Polar-MMV Screening Library” (2021), ChEMBL document CHEMBL3988442.

Each number is a percent effect as filed.
How 0% and 100% were set is not recorded. Most values in the screen are low, and negative values occur.
Compounds were drawn at random from those tested, without regard to their results.

LiHisRS: 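Histidine-tRNA ligase, Leishmania infantum (UniProt A4I591). Enzyme assay of histidyl-tRNA synthetase; the read-out is not stated. Tested at 30 µM. Higher reads as stronger inhibition (inferred: compounds with an IC50 in retests scored well above the rest). The assay is labelled LdHisRS but filed under L. infantum. About 69,000 compounds were tested under these conditions; 0.6% (about 410) showed 50% or more at least once.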
Pks13 thioesterase: 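Polyketide synthase Pks13, Mycobacterium tuberculosis (UniProt I6X8D2). Enzyme assay of the thioesterase domain of polyketide synthase 13; the read-out is not stated. Tested at 30 µM. Higher reads as stronger inhibition (inferred from which compounds were picked for retests). Size under these conditions: about 67,000 compounds, about 300 of them at 50% or above in at least one test.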
MtTrpRS: 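Enzyme assay of tryptophanyl-tRNA synthetase; the read-out is not stated. Target: Tryptophan-tRNA ligase, Mycobacterium tuberculosis (UniProt P9WFT3). Concentration: 10 µM. Higher most likely means stronger inhibition; the record gives no direction and few retests gave an IC50. About 65,000 compounds were tested under these conditions; 0.098% (about 64) showed 50% or more at least once.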
TcHisRS: 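Histidine-tRNA ligase, Trypanosoma cruzi CL Brener (UniProt Q4DA54). Enzyme assay of histidyl-tRNA synthetase; the read-out is not stated. Concentration: 30 µM. Direction is inferred from retests: higher values go with stronger inhibition. Of about 69,000 compounds tested this way, about 31 (0.045%) reached 50% or more in at least one test.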

- Cc1ccc(CNC2(Cc3cc(CC(C)C)on3)COC2)o1 : LiHisRS: 12.16%; Pks13 thioesterase: 33.35%; MtTrpRS: -0.2276%; TcHisRS: 5.435%
- c1cncc(-c2noc(CN3CCCCC3Cn3cccn3)n2)c1 (stereo unspecified) : LiHisRS: 13.79%; Pks13 thioesterase: -21.38%; MtTrpRS: -3.516%; TcHisRS: 16.38%
- C[C@@H]1CN(C2CCN(c3ccccc3)CC2)CC[C@@]1(O)C1CCOCC1 : LiHisRS: 8.696%; Pks13 thioesterase: 16.45%; MtTrpRS: 0.1608%; TcHisRS: 0.9901%
- c1cncc(-c2noc(CNCC3CCCN3c3cccnn3)n2)c1 (stereo unspecified) : LiHisRS: 36.11%; Pks13 thioesterase: -9.682%; MtTrpRS: -3.342%; TcHisRS: 46.04%
- CCCN(Cc1ccccc1O)S(=O)(=O)C(C)CC (stereo unspecified) : LiHisRS: 10%; Pks13 thioesterase: -2.166%; MtTrpRS: -0.361%; TcHisRS: -1.064%
- CCc1ccc(-n2nnc(C(=O)O)c2-c2ccccn2)cc1 : LiHisRS: 15.79%; Pks13 thioesterase: -22.8%; MtTrpRS: 1.891%; TcHisRS: 1.754%
- O=C(c1ncccc1O)N1CCN(Cc2ccco2)C(CCO)C1 (stereo unspecified) : LiHisRS: 14.88%; Pks13 thioesterase: -19.83%; MtTrpRS: 2.189%; TcHisRS: 9.184%
- CCn1nc(C)c(NC(=O)c2cc(NC(=O)C(C)C)n(C)n2)c1C : LiHisRS: 17.65%; Pks13 thioesterase: -15.34%; MtTrpRS: 0.2973%; TcHisRS: -12.17%
- c1ccc(CCNc2cccc(C3CCCNC3)n2)cc1 (stereo unspecified) : LiHisRS: 17.24%; Pks13 thioesterase: -11.08%; MtTrpRS: -1.882%; TcHisRS: 9.886%
- Fc1ccccc1CC1CCN(Cc2nccs2)CC1 : LiHisRS: 27.4%; Pks13 thioesterase: -29.14%; MtTrpRS: -4.015%; TcHisRS: 2.703%
- CN(CCc1ccccc1)Cc1c(C2CCOCC2)[nH]c2ncccc12 : LiHisRS: 8.392%; Pks13 thioesterase: -2.501%; MtTrpRS: -3.59%; TcHisRS: 5.085%
- O=C([C@H]1CCCO1)N1CCC2(CCCN(CCOc3ccccc3)C2)C1 (stereo partly specified) : LiHisRS: 17.43%; Pks13 thioesterase: -35.29%; MtTrpRS: -0.6634%; TcHisRS: 2.404%
- CCN(C(=O)CS(=O)(=O)c1cc(OC)c(OC)cc1C)C1CC1 : LiHisRS: 8.333%; Pks13 thioesterase: -32.16%; MtTrpRS: -2.352%; TcHisRS: -2.609%
- O=C(CC1CCCO1)NCc1ccc(Br)cc1F (stereo unspecified) : LiHisRS: 0.8929%; Pks13 thioesterase: 1.689%; MtTrpRS: -3.939%; TcHisRS: 0%
- Cn1cc(CNc2ccc(F)c(N3CCCS3(=O)=O)c2)cn1 : LiHisRS: 38.36%; Pks13 thioesterase: -13.95%; MtTrpRS: 3.726%; TcHisRS: 8.743%
- CN1CCCC(CNC(=O)N(C)Cc2ccc(Cl)c(F)c2)C1 (stereo unspecified) : LiHisRS: -10.11%; Pks13 thioesterase: 5.117%; MtTrpRS: -1.537%; TcHisRS: -0.5181%
- CCOCCS(=O)(=O)c1nnc(NCCOC)s1 : LiHisRS: 8.929%; Pks13 thioesterase: -13.87%; MtTrpRS: 6.533%; TcHisRS: -0.8772%
- COc1cccc(Cn2cc(N3C(=O)[C@H]4CCCC[C@H]4C3=O)cn2)c1 : LiHisRS: 7.08%; Pks13 thioesterase: -17.22%; MtTrpRS: -2.294%; TcHisRS: -2.632%
- CCOC(C)c1nc(CN2CCC(CNC(C)=O)CC2)cs1 (stereo unspecified) : LiHisRS: 7.692%; Pks13 thioesterase: -8.383%; MtTrpRS: -0.387%; TcHisRS: -0.8333%
- CC(C)C[C@H](NCc1cc(O)c2cccc(F)c2n1)C(N)=O : LiHisRS: 9.375%; Pks13 thioesterase: 9.664%; MtTrpRS: -4.438%; TcHisRS: 2.762%
- Cn1cncc1-c1nnc([C@H]2CCN(C3CCOCC3)C2)o1 : LiHisRS: 10.81%; Pks13 thioesterase: -26.21%; MtTrpRS: -4.958%; TcHisRS: 3.483%

Some entries from above, unchanged:

* O=C(CC1CCCO1)NCc1ccc(Br)cc1F (stereo unspecified) : LiHisRS: 0.8929%; Pks13 thioesterase: 1.689%; MtTrpRS: -3.939%; TcHisRS: 0%
* CCn1nc(C)c(NC(=O)c2cc(NC(=O)C(C)C)n(C)n2)c1C : LiHisRS: 17.65%; Pks13 thioesterase: -15.34%; MtTrpRS: 0.2973%; TcHisRS: -12.17%